# Results published in PubChem BioAssay AID1671190 (National Center for Advancing Translational Sciences (NCATS), 2021).
# By UniProt entry, the sequences of proteins in these tests, tags left out.
# UniProt P18054, whole entry, looked up: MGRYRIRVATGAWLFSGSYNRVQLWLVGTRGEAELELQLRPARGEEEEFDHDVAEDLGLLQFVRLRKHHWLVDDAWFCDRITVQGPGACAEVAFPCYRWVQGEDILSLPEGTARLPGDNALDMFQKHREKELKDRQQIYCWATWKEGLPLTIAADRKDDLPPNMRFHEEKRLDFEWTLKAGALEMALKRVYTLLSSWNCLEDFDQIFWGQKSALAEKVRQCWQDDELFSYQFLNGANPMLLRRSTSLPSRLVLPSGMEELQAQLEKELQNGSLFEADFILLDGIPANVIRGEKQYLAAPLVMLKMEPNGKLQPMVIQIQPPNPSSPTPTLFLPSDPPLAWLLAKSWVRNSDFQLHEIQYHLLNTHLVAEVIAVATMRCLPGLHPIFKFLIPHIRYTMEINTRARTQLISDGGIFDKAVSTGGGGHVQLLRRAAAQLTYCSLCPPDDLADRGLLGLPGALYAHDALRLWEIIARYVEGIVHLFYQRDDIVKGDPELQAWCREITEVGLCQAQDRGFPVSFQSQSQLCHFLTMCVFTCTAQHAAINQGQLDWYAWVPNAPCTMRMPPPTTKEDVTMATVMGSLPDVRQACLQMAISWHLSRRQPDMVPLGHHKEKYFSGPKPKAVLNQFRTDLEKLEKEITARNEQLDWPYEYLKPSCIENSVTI
# Hit rate of the full screen: of about 580,000 compounds, about 6,100 (1.1%) were called active. The inconclusive results got no clear call from the source; some entries with a clear call stand among them for comparison. Calls come from the whole dose curve; as a rule, active = well fitted inhibition curve with a large enough effect; inconclusive = small, poorly fitted or top-dose-only effect, or another doubt; inactive = no such curve, though single readings can be large or run the other way. Potencies of inconclusive entries are doubtful fits and often do not repeat.
# Target: Polyunsaturated fatty acid lipoxygenase ALOX12 (Homo sapiens) (UniProt P18054)
# Assay: Primary qHTS assay for inhibitors of human arachidonate 12S-lipoxygenase (ALOX12): Round 2
# Conditions: purified 12hLO, xylenol orange hydroperoxide absorbance; activity change, negative = inhibition: at 108 µM (top of the series) unless noted
# Procedure, shortened: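 Purified human 12hLO (150 nM final) in 25 mM Hepes, 0.01% Triton X-100, pH 7.0 was preincubated 15 min at room temperature with compound. Then 40 uM arachidonic acid was added, 30 min. Hydroperoxide was read by Fe-XO absorbance ratio 573/405 nm.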
# % is set by controls: 0 for no effect and ±100 for the full control effect; potency is the fitted concentration of half-maximal effect.
SMILES,Potency,"activity change, negative = inhibition"
CCOC(=O)c1sc(=S)n(C)c1NC(=O)c1ccccc1Cl,"inconclusive: 50.1 µM [inhibitor, partial curve, poor fit]",
CCOc1cc(N)ccc1OC(F)F,"inconclusive: 89.1 µM [inhibitor, single point]",
Cc1c(C)n(CC(O)CN(CCO)CCO)c2ccccc12 (configuration not stated),"inconclusive: 79.4 µM [inhibitor, partial curve, poor fit]",
COc1ccc(CNC2CCCc3ccccc32)c(OC)c1 (configuration not stated),"inconclusive: 1.58 µM [inhibitor, full curve, poor fit]",
C=CCOC(=O)C1=C[C@@H](c2coc3ccccc3c2=O)C[C@@H](OCCCCO)O1,"inconclusive: 100 µM [inhibitor, partial curve, poor fit]",
N#C/C(=C/c1cccc(O)c1)C(=O)c1c[nH]c2cc(F)ccc12,active: 15.8 µM,
COc1cc(OC)nc(Oc2ccccc2C=O)n1,,inactive: 0%
CCOC(=O)[C@H]1[C@H]2COc3ccc(Br)cc3[C@@H]2N2C(=O)CN(CC3CCCO3)C(=O)[C@@]12C (some centres not stated),"inconclusive: 112 µM [inhibitor, single point]",
CSc1nc2c(c(=O)[nH]1)C(c1ccc(F)cc1)CC(=O)N2 (configuration not stated),"inconclusive: 50.1 µM [inhibitor, partial curve, poor fit]",
COc1cccc(C2c3[nH]c4ccccc4c3C[C@H]3C(=O)N(c4ccccc4C(=O)N4CCC(C(=O)O)CC4)C(=O)N23)c1 (some centres not stated),"inconclusive: 39.8 µM [inhibitor, partial curve, poor fit]",
CCCCn1c(C)c(C)c(-c2nc3ccccc3[nH]2)c1NC(=O)C(C)C,,inactive: -9.03%
COc1ccc(CN2CCN(Cc3ccc4ccccc4c3)CC2)cc1OC,"inconclusive: 3.98 µM [inhibitor, full curve]",
COc1ccc(/C=C(\NC(=O)c2ccc(Cl)cc2)C(=O)NCc2cccnc2)cc1OC,"inconclusive: 31.6 µM [inhibitor, partial curve, poor fit]",
CC(C)C[C@@H](CSc1ccccc1)N1CCN(CCc2ccccc2)CCC1=O,,inactive: -8.07%
CC(C)(C)NC(=O)c1cc(F)ccc1I,,inactive: -22.2%
N#C/C(=C/c1cccc(O)c1)C(=O)Nc1ccc(N2CCOCC2)cc1,"inconclusive: 10 µM [inhibitor, partial curve, poor fit]",
C#CCOC(=O)CCC(=O)NCCCCCCCCCCCC,,inactive: 15.4%
O=C(CSc1ccsc1[N+](=O)[O-])NC1CCCC1,"inconclusive: 158 µM [inhibitor, partial curve, poor fit]",
O=C(O)C1CC=CCC1C(=O)Nc1ccc(F)c(F)c1 (configuration not stated),,inactive: -7.44%
Cc1ccc(S(=O)(=O)N2C3CCCCC3O[C@H]2CC(=O)Oc2ccccc2)cc1 (some centres not stated),"inconclusive: 44.7 µM [inhibitor, partial curve, poor fit]",
COC(=O)CSc1nc(COc2ccccc2)nc2ccccc12,"inconclusive: 44.7 µM [inhibitor, single point]",

SMILES,Potency,"activity change, negative = inhibition"
Cc1cccc2nc(-c3ccccc3)c(-c3ccc(CN4CCC(c5nc6ccccc6[nH]5)CC4)cc3)nc12,"inconclusive: 89.1 µM [inhibitor, single point]",
COc1ccc(CCNC(=O)CSc2ccc(-c3ccco3)nn2)cc1OC,"inconclusive: 112 µM [inhibitor, single point]",
C=CCn1c(NC(=O)c2ccc(Br)o2)c(C(=O)OCC)sc1=S,"inconclusive: 12.6 µM [inhibitor, partial curve, poor fit]",
COc1ccc(CN2C3CCCC2CC(NC(=O)c2cccc(F)c2)C3)cc1 (configuration not stated),"inconclusive: 112 µM [inhibitor, single point]",
O=C(NC1CC(=O)N(c2ccccc2)C1)C(c1ccccc1)c1ccccc1 (configuration not stated),,inactive: -22.6%
COc1ccc(S(=O)(=O)N2CCCC2)cc1NC(=O)c1ccccc1,"inconclusive: 112 µM [inhibitor, partial curve, poor fit]",
CCN(CC)Cc1ccc(CNC(=O)/C=C/c2cccs2)cc1,"inconclusive: 5.01 µM [inhibitor, partial curve, poor fit]",
Cc1ccc(C(=O)N2CCCCC2)cc1NC(=O)c1nsc2ccccc12,"inconclusive: 112 µM [inhibitor, partial curve, poor fit]",
Cn1nccc1C(=O)NC1CCCc2c1cnn2-c1ccc(C(C)(C)C)cc1 (configuration not stated),,inactive: 297%
NC(=O)Nc1ccc(Cl)c(NS(=O)(=O)c2ccccc2Br)c1,"inconclusive: 44.7 µM [inhibitor, partial curve, poor fit]",
CC(C)Cn1nc(NC(=O)C2CCCO2)c2cc3ccccc3nc21 (configuration not stated),,inactive: 0%
COc1ccc(C(c2nnnn2C2CCCC2)N2CCN(C3CCCC3)CC2)cc1OC (configuration not stated),"inconclusive: 44.7 µM [inhibitor, partial curve, poor fit]",
COc1ccc(S(=O)(=O)N2CCC(N3CCN(Cc4ccc(F)cc4)C(=O)C3=O)CC2)cc1,"inconclusive: 112 µM [inhibitor, partial curve, poor fit]",
CCCCNC(=O)C(C#N)c1nc2ccccc2nc1N1CCN(c2ccc(F)cc2)CC1 (configuration not stated),"inconclusive: 0.316 µM [inhibitor, full curve, poor fit]",
COc1ccc(N=Cc2sc(O)c3ccccc23)cc1,"inconclusive: 50.1 µM [inhibitor, partial curve, poor fit]",
Cc1cccc(-c2c3c(=O)n(C)c(=O)n(C)c3cn2CC2CCCO2)c1 (configuration not stated),,inactive: 13.6%
COc1ccc(-c2ccc(C(=O)NCc3ccccc3)c3occc23)c(C)c1,"inconclusive: 112 µM [inhibitor, single point]",
COc1cccc(NC(=S)N(Cc2cccc(Br)c2)CC2CCC(C(=O)O)CC2)c1 (configuration not stated),"inconclusive: 44.7 µM [inhibitor, partial curve, poor fit]",
COc1ccc(N2CCN(c3cnc4ccccc4n3)CC2)cc1,"inconclusive: 50.1 µM [inhibitor, partial curve, poor fit]",
CCN(CC)CC(=O)c1ccc(-c2ccccc2)cc1,,inactive: -8.38%
Fc1cccc(-c2nn[nH]n2)c1,active: 25.1 µM,

# Compounds shown so far containing a cyano group (3):
SMILES,Potency,"activity change, negative = inhibition"
N#C/C(=C/c1cccc(O)c1)C(=O)c1c[nH]c2cc(F)ccc12,active: 15.8 µM,
N#C/C(=C/c1cccc(O)c1)C(=O)Nc1ccc(N2CCOCC2)cc1,"inconclusive: 10 µM [inhibitor, partial curve, poor fit]",
CCCCNC(=O)C(C#N)c1nc2ccccc2nc1N1CCN(c2ccc(F)cc2)CC1 (configuration not stated),"inconclusive: 0.316 µM [inhibitor, full curve, poor fit]",
